# Results of single-concentration screens

Data taken from ChEMBL document CHEMBL3988442, “University of Dundee, Small-Polar-MMV Screening Library” (2021).

The filed quantity is “Percent Effect” (%).
The controls that fix the scale are not given in the record; negative values are as filed.
Compounds were drawn at random from those tested, without regard to their results.
Two or more numbers in one place are separate tests of the same structure; such repeats can differ widely.

A: 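Whole-cell growth test on Mycobacterium tuberculosis, read after 3 days in glucose-containing 7H9 medium; the read-out is not stated. Tested at 50 µM. Higher reads as more growth inhibition (inferred: compounds with an IC50 in retests scored well above the rest). Of about 69,000 compounds tested this way, about 760 (1.1%) reached 50% or more in at least one test.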
B: 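Whole-cell growth test on Mycobacterium tuberculosis, read after 4 days in a medium based on cholesterol and the lipid DPPC; the read-out is not stated. Compounds at 50 µM. Higher reads as more growth inhibition (inferred: compounds with an IC50 in retests scored well above the rest). Size under these conditions: about 69,000 compounds, about 370 of them at 50% or above in at least one test.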

{"compound": "Cc1cc2[nH]c(=O)oc2cc1S(=O)(=O)N1CCCC(N(C)C)CC1", "stereo": "centres undefined", "A": -3.747, "B": -5.376}
{"compound": "CC(C)Cc1nc(CN2CCCC2Cn2cncn2)no1", "stereo": "centres undefined", "A": 2.343, "B": -6.102}
{"compound": "Cc1ccc2nc(C(=O)N3CC(c4cccnc4)C3)cn2c1", "A": 1.263, "B": 1.56}
{"compound": "COc1ccc(F)c(-c2cc(C(=O)NC3CC3)ccn2)c1", "A": "45.56 and 29.65", "B": 35.35}
{"compound": "O=C(NCCCn1cccn1)c1nc2ccccc2[nH]1", "A": -11.26, "B": -19.06}
{"compound": "NC(=O)[C@@H]1CCCN1C(=O)c1cn(C/C=C/c2ccccc2)nn1", "A": 11.96, "B": -3.799}
{"compound": "c1c(CN2CCOCC2)nc2n1CCN(C1CCOCC1)C2", "A": 27.19, "B": 2.951}
{"compound": "CN(Cc1ccc(-n2cccn2)cc1)C(=O)CCC(F)(F)F", "A": 19.92, "B": 8.887}
{"compound": "Cn1c(CO)cnc1SC(C(N)=O)c1ccccc1", "stereo": "centres undefined", "A": -24.28, "B": -10.41}
{"compound": "Cc1nn(C)c(Cl)c1C1CCCN1Cc1noc(C2CC2)n1", "stereo": "centres undefined", "A": 25.11, "B": -1.233}
{"compound": "C[C@H]1CN(C(=O)c2cccnc2)C[C@@]12CCN(CCN1CCCC1)C2=O", "A": -13.37, "B": -12.37}
{"compound": "COc1cc(/C=C/c2ncc(C(=O)O)s2)cc(Cl)c1O", "B": -21.54}
{"compound": "Cc1nc(C(=O)N2CCC3(CC2)CC(=O)N(CC2CCCO2)C3)cs1", "stereo": "centres undefined", "A": -4.99, "B": "8.54 and -1.395"}
{"compound": "CCc1noc(CS(=O)(=O)CC(=O)N2c3ccccc3CC2C)n1", "stereo": "centres undefined", "A": 12.85, "B": -5.143}
{"compound": "[H][C@@]12CCCO[C@]1([H])[C@@H](N(C)Cc1cncnc1)CN2C(=O)c1ccc[nH]1", "A": 6.553, "B": 11.96}
{"compound": "Cn1nnc2c1CCN(CC1CC1)C2COCc1ccccc1.O=C(O)C(F)(F)F", "stereo": "centres undefined", "A": 10.91, "B": -11.76}
{"compound": "CCN1CCNC(=O)C12CCN(S(=O)(=O)c1ccc(OC)cc1)CC2", "A": -21.47, "B": -16.72}
{"compound": "Cc1occc1-c1nc(-c2cccc(CN3CCOCC3)c2)no1", "A": 35.39, "B": 23.04}
{"compound": "COc1ccc(F)cc1CN1CCCn2nc(CNS(C)(=O)=O)cc2C1", "A": 1.834, "B": 10.69}
{"compound": "Cc1ccc(CNC(=O)N2CCc3ccccc3C2CO)s1", "stereo": "centres undefined", "A": -7.83, "B": 3.939}
{"compound": "Cn1c(C2CC2)nc2c1CCN(CCOc1ccc(C#N)cc1)C2", "A": 17.79, "B": -7.061}
{"compound": "O=C(O)CC(O)(CC(=O)O)C(=O)O.[H][C@]12CC[C@](O)(c3ccc(C)cn3)[C@@]1([H])CN(Cc1ccc(OC)cc1F)C2", "A": 24.83, "B": 5.408}
{"compound": "O=C(O)C(F)(F)F.O=C(O)C(F)(F)F.O=C(O)C(F)(F)F.[H][C@@]12CN(Cc3cccnc3)CCO[C@]1([H])CN(Cc1ccccc1F)C2", "A": "-2.498 and -8.931", "B": -12.55}

3 of the entries, repeated:

- Cn1nnc2c1CCN(CC1CC1)C2COCc1ccccc1.O=C(O)C(F)(F)F (centres undefined) | A: 10.91%; B: -11.76%
- O=C(O)C(F)(F)F.O=C(O)C(F)(F)F.O=C(O)C(F)(F)F.[H][C@@]12CN(Cc3cccnc3)CCO[C@]1([H])CN(Cc1ccccc1F)C2 | A: -2.498% and -8.931%; B: -12.55%
- Cn1c(C2CC2)nc2c1CCN(CCOc1ccc(C#N)cc1)C2 | A: 17.79%; B: -7.061%